# Values quoted from earlier work, collected in patent US10548837B1, “Topical montelukast for treatment of atopic dermatitis” (TARO PHARMACEUTICAL INDUSTRIES LTD., priority 2016, dated 2020).
# At least one structure is not confirmed: it was looked up by name or label, or the drawing left a doubt.
# Test system: eosinophils
# Details: background statement
compound,measurement,value
"CC(C)(O)c1ccccc1CC[C@@H](SCC1(CC(=O)O)CC1)c1cccc(/C=C/c2ccc3ccc(Cl)cc3n2)c1 [Montelukast, 1-(1-(3-(2-(7-chloro-2-quinolinyl)-(E)-ethenyl)-phenyl)(3-(2-(1-hydroxy-1-methylethyl)phenyl)propyl)thio)-methyl)-cyclo-propane) acetate]",decrease of eosinophils,15%
